Results as given in EP2369000A1, “Production of peptides and proteins by accumulation in mitochondria” (3T-Science, S.L., priority 2010, dated 2011).

Tested on: mitochondrial fraction
Assay: Enrichment of target protein in the mitochondrial fraction by differential centrifugation (Western blot, ImageJ)
Assay type: cell-based, Kluyveromyces lactis
[1] = P1, pellet from the 1500rpm centrifugation
[2] = P2, pellet from the 13,000rpm centrifugation (mitochondrial fraction)
[3] = S1, supernatant from the 1500rpm centrifugation
[4] = S2, supernatant from the 13,000rpm centrifugation

Substance	Ratio (With respect to total) [1]	Ratio (With respect to total) [2]	Ratio (With respect to total) [3]	Ratio (With respect to total) [4]	Ratio (With respect to total) (TOTAL)
MIS-VII: synthetic mitochondrial targeting sequence (MTS), SEQ ID NO: 2, containing the core RRRA (RLRRRAARSLARSAARR)	0,65	1,47	1,16	1,08	1,00
MIS-XIII: synthetic mitochondrial targeting sequence (MTS), SEQ ID NO: 3, containing the core RRRA (RAARRRAARR)	0,77	1,90	1,19	1,07	1,00
MIS-XIV: synthetic mitochondrial targeting sequence (MTS), SEQ ID NO: 4, containing the core RRRA (RARRRARR)	0,72	1,44	1,00	1,01	1,00
